# Reference: the supplement of paper PMC8728848
# The other results are listed elsewhere or left out.
# B1: PX9916F-bfa-443-24-443 (Bacteroides fragilis) (protein)
# chain: DIRPVGSVIPQTAEEYRALLARAYLNVPNDRGLACLRSDEMLVNDNEYDRNSYGDIERWNDVSPFPGTSQFTWSNFYNVLFIANQVIESQKEITEGTPEVVNQLVGEAHLLRAYLHFVLVNLHGQPYTKSGALNSKSIPLKLDTDLEKTLGRNTVEEVYTSILSDIEHARELINKEKWETVFSYRFNVLSVDALQSRVSLYMGAWPKCLESAEAVLAKKSVLVDMNETPLALPNHFESVESITALEQVMGSSVNNAVWVPATFLALYQEGDKRLAAYFAAPDENGNRKSSKGGKREFSCTFRVGELYLNAAEAAANMDKLPHARMRLLELMRKRYTPEAYDKKENAVNVMDKNALISEILNERARELAFEGHRWFDLRRTTRPRMVKVLQGKTYILEQDDPRYTIPIPRDAIAANPGLAN
# Tests used:
# Experiment in all cases: glycan array binding signal (z-score within array); higher = stronger binding
# Conditions in all cases: glycan notation: IUPAC condensed, linker removed
# Gal(b1-2)Gal = biological target: Gal(b1-2)Gal
# How it was run: (§1)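 Negative Z-scores can be read as non-binding. The Z-score is calculated within each array and then averaged across arrays of one protein sequence at different concentrations or buffers and across linkers. Arrays, 3228 in all, were curated from the Consortium for Functional Glycomics database and kept only where the protein sequence was available.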
# Gal(b1-3)Gal = biological target: Gal(b1-3)Gal
# How it was run: as §1
# Gal(b1-3)Gal(b1-4)GlcNAc = biological target: Gal(b1-3)Gal(b1-4)GlcNAc
# How it was run: as §1
# Gal(b1-3)GalNAc = biological target: Gal(b1-3)GalNAc
# How it was run: as §1
# [1] = biological target: Gal(b1-3)GalNAc(a1-3)[Fuc(a1-2)]Gal(b1-4)Glc
# How it was run: as §1
# [2] = biological target: Gal(b1-3)GalNAc(a1-3)[Fuc(a1-2)]Gal(b1-4)GlcNAc
# How it was run: as §1
# Gal(b1-3)GalNAc(b1-3)Gal = biological target: Gal(b1-3)GalNAc(b1-3)Gal
# How it was run: as §1
# [3] = biological target: Gal(b1-3)GalNAc(b1-3)Gal(a1-4)Gal(b1-4)Glc
# How it was run: as §1
# [4] = biological target: Gal(b1-3)GalNAc(b1-4)Gal(b1-4)Glc
# How it was run: as §1
# [5] = biological target: Gal(b1-3)GalNAc(b1-4)[Neu5Ac(a2-3)]Gal(b1-4)Glc
# How it was run: as §1
# Gal(b1-3)GlcNAc = biological target: Gal(b1-3)GlcNAc
# How it was run: as §1
# [6] = biological target: Gal(b1-3)GlcNAc(a1-3)Gal(b1-4)GlcNAc
# How it was run: as §1
# [7] = biological target: Gal(b1-3)GlcNAc(a1-6)Gal(b1-4)GlcNAc
# How it was run: as §1
# Gal(b1-3)GlcNAc(b1-2)Man = biological target: Gal(b1-3)GlcNAc(b1-2)Man
# How it was run: as §1
# [8] = biological target: Gal(b1-3)GlcNAc(b1-2)Man(a1-3)[Gal(b1-3)GlcNAc(b1-2)Man(a1-6)]Man(b1-4)GlcNAc(b1-4)GlcNAc
# How it was run: as §1
# [9] = biological target: Gal(b1-3)GlcNAc(b1-2)Man(a1-3)[Gal(b1-3)GlcNAc(b1-2)Man(a1-6)]Man(b1-4)GlcNAc(b1-4)[Fuc(a1-6)]GlcNAc
# How it was run: as §1
# [10] = biological target: Gal(b1-3)GlcNAc(b1-2)Man(a1-3)[GlcNAc(b1-4)][Gal(b1-3)GlcNAc(b1-2)Man(a1-6)]Man(b1-4)GlcNAc(b1-4)GlcNAc
# How it was run: as §1
# [11] = biological target: Gal(b1-3)GlcNAc(b1-2)[Gal(b1-3)GlcNAc(b1-6)]Man(a1-6)[Gal(b1-3)GlcNAc(b1-2)Man(a1-3)]Man(b1-4)GlcNAc(b1-4)GlcNAc
# How it was run: as §1
# [12] = biological target: Gal(b1-3)GlcNAc(b1-3)Gal(b1-3)GlcNAc
# How it was run: as §1
# [13] = biological target: Gal(b1-3)GlcNAc(b1-3)Gal(b1-4)Glc
# How it was run: as §1
# [14] = biological target: Gal(b1-3)GlcNAc(b1-3)Gal(b1-4)GlcNAc
# How it was run: as §1
# [15] = biological target: Gal(b1-3)GlcNAc(b1-3)Gal(b1-4)GlcNAc(b1-2)Man(a1-3)[Gal(b1-3)GlcNAc(b1-3)Gal(b1-4)GlcNAc(b1-2)Man(a1-6)]Man(b1-4)GlcNAc(b1-4)GlcNAc
# How it was run: as §1
# [16] = biological target: Gal(b1-3)GlcNAc(b1-3)Gal(b1-4)GlcNAc(b1-2)[Gal(b1-3)GlcNAc(b1-3)Gal(b1-4)GlcNAc(b1-6)]Man(a1-6)[Gal(b1-3)GlcNAc(b1-3)Gal(b1-4)GlcNAc(b1-2)Man(a1-3)]Man(b1-4)GlcNAc(b1-4)[Fuc(a1-6)]GlcNAc
# How it was run: as §1
# [17] = biological target: Gal(b1-3)GlcNAc(b1-3)Gal(b1-4)GlcNAc(b1-3)Gal(b1-4)GlcNAc(b1-2)[Gal(b1-3)GlcNAc(b1-3)Gal(b1-4)GlcNAc(b1-3)Gal(b1-4)GlcNAc(b1-6)]Man(a1-6)[Gal(b1-3)GlcNAc(b1-3)Gal(b1-4)GlcNAc(b1-3)Gal(b1-4)GlcNAc(b1-2)Man(a1-3)]Man(b1-4)GlcNAc(b1-4)[Fuc(a1-6)]GlcNAc
# How it was run: as §1
# [18] = biological target: Gal(b1-3)GlcNAc(b1-3)Gal(b1-4)GlcNAc(b1-6)[Gal(b1-3)GlcNAc(b1-3)]Gal(b1-4)Glc
# How it was run: as §1
# [19] = biological target: Gal(b1-3)GlcNAc(b1-3)Gal(b1-4)[Fuc(a1-3)]GlcNAc
# How it was run: as §1
# [20] = biological target: Gal(b1-3)GlcNAc(b1-3)Gal(b1-4)[Fuc(a1-3)]GlcNAc(b1-6)[Gal(b1-3)GlcNAc(b1-3)]Gal(b1-4)Glc
# How it was run: as §1
# [21] = biological target: Gal(b1-3)GlcNAc(b1-3)GalNAc
# How it was run: as §1
# [22] = biological target: Gal(b1-3)GlcNAc(b1-6)Gal(b1-4)GlcNAc
# How it was run: as §1
# [23] = biological target: Gal(b1-3)GlcNAc(b1-6)GalNAc
# How it was run: as §1
# [24] = biological target: Gal(b1-3)GlcNAc(b1-6)[Gal(b1-3)]GalNAc
# How it was run: as §1
# Gal(b1-3)GlcNAc6S = biological target: Gal(b1-3)GlcNAc6S
# How it was run: as §1
# [25] = biological target: Gal(b1-3)[Fuc(a1-4)]GlcNAc
# How it was run: as §1
# [26] = biological target: Gal(b1-3)[Fuc(a1-4)]GlcNAc(b1-2)Man
# How it was run: as §1
# [27] = biological target: Gal(b1-3)[Fuc(a1-4)]GlcNAc(b1-2)Man(a1-3)[Gal(b1-3)[Fuc(a1-4)]GlcNAc(b1-2)Man(a1-6)]Man(b1-4)GlcNAc(b1-4)[Fuc(a1-6)]GlcNAc
# How it was run: as §1
# [28] = biological target: Gal(b1-3)[Fuc(a1-4)]GlcNAc(b1-3)Gal(b1-3)[Fuc(a1-4)]GlcNAc
# How it was run: as §1
# [29] = biological target: Gal(b1-3)[Fuc(a1-4)]GlcNAc(b1-3)Gal(b1-4)[Fuc(a1-3)]GlcNAc
# How it was run: as §1
# [30] = biological target: Gal(b1-3)[Fuc(a1-4)]GlcNAc(b1-6)GalNAc
# How it was run: as §1
# [31] = biological target: Gal(b1-3)[GlcNAc(b1-6)]GalNAc
# How it was run: as §1
# [32] = biological target: Gal(b1-3)[Neu5Ac(a2-6)]GalNAc
# How it was run: as §1
# [33] = biological target: Gal(b1-3)[Neu5Ac(a2-6)]GlcNAc(b1-4)Gal(b1-4)Glc
# How it was run: as §1
# [34] = biological target: Gal(b1-3)[Neu5Ac(b2-6)]GalNAc
# How it was run: as §1
# Gal(b1-4)Gal = biological target: Gal(b1-4)Gal
# How it was run: as §1
# [35] = biological target: Gal(b1-4)GalNAc(a1-3)[Fuc(a1-2)]Gal(b1-4)GlcNAc
# How it was run: as §1
# [36] = biological target: Gal(b1-4)GalNAc(b1-3)[Fuc(a1-2)]Gal(b1-4)GlcNAc
# How it was run: as §1
binder,measurement,setting,value
B1,glycan array binding signal (z-score),Gal(b1-2)Gal,0.596
same,glycan array binding signal (z-score),Gal(b1-3)Gal,-0.318
same,glycan array binding signal (z-score),Gal(b1-3)Gal(b1-4)GlcNAc,-1.38
same,glycan array binding signal (z-score),Gal(b1-3)GalNAc,-0.343
same,glycan array binding signal (z-score),[1],-0.677
same,glycan array binding signal (z-score),[2],0.156
same,glycan array binding signal (z-score),Gal(b1-3)GalNAc(b1-3)Gal,0.114
same,glycan array binding signal (z-score),[3],0.271
same,glycan array binding signal (z-score),[4],-0.05
same,glycan array binding signal (z-score),[5],-0.54
same,glycan array binding signal (z-score),Gal(b1-3)GlcNAc,-0.409
same,glycan array binding signal (z-score),[6],-0.861
same,glycan array binding signal (z-score),[7],0.993
same,glycan array binding signal (z-score),Gal(b1-3)GlcNAc(b1-2)Man,-0.681
same,glycan array binding signal (z-score),[8],0.347
same,glycan array binding signal (z-score),[9],1.79
same,glycan array binding signal (z-score),[10],-0.193
same,glycan array binding signal (z-score),[11],-1
same,glycan array binding signal (z-score),[12],0.006
same,glycan array binding signal (z-score),[13],-0.419
same,glycan array binding signal (z-score),[14],-0.333
same,glycan array binding signal (z-score),[15],1.31
same,glycan array binding signal (z-score),[16],0.489
same,glycan array binding signal (z-score),[17],1.06
same,glycan array binding signal (z-score),[18],1.58
same,glycan array binding signal (z-score),[19],-0.126
same,glycan array binding signal (z-score),[20],-0.613
same,glycan array binding signal (z-score),[21],0.005
same,glycan array binding signal (z-score),[22],-0.437
same,glycan array binding signal (z-score),[23],-0.376
same,glycan array binding signal (z-score),[24],0
same,glycan array binding signal (z-score),Gal(b1-3)GlcNAc6S,1.4
same,glycan array binding signal (z-score),[25],0.147
same,glycan array binding signal (z-score),[26],-0.292
same,glycan array binding signal (z-score),[27],-0.098
same,glycan array binding signal (z-score),[28],-1.04
same,glycan array binding signal (z-score),[29],0.943
same,glycan array binding signal (z-score),[30],-0.283
same,glycan array binding signal (z-score),[31],-0.813
same,glycan array binding signal (z-score),[32],-0.312
same,glycan array binding signal (z-score),[33],-0.584
same,glycan array binding signal (z-score),[34],-0.941
same,glycan array binding signal (z-score),Gal(b1-4)Gal,-0.978
same,glycan array binding signal (z-score),[35],0.244
same,glycan array binding signal (z-score),[36],-0.937

# Fetched one by one from above (four):
binder,measurement,setting,value
B1,glycan array binding signal (z-score),[11],-1
same,glycan array binding signal (z-score),[19],-0.126
same,glycan array binding signal (z-score),Gal(b1-3)GlcNAc(b1-2)Man,-0.681
same,glycan array binding signal (z-score),[28],-1.04
